# Measured values taken from PubChem BioAssay AID485367 (National Center for Advancing Translational Sciences (NCATS), 2010).
# By UniProt entry, the sequences of proteins in these tests, tags left out.
# UniProt O15648, whole entry: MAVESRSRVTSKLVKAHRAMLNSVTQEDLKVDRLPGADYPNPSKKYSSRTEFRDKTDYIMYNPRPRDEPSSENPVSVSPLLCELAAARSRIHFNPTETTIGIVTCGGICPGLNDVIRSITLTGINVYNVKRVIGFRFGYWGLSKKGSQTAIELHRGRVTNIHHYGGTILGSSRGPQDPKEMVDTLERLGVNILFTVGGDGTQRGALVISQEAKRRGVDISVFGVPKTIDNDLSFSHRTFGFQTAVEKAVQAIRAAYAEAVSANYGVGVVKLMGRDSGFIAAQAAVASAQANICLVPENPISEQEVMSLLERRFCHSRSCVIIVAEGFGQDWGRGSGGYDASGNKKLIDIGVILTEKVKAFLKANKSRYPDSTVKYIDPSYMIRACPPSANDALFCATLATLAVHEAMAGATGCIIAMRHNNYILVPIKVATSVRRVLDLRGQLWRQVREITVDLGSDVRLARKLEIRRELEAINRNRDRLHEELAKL
# The campaign covered roughly 330,000 compounds. About 560 (0.17%) were called active. Listed are the inconclusive results; actives and inactives stand elsewhere. Calls come from the whole dose curve; as a rule, active = well fitted inhibition curve with a large enough effect; inconclusive = small, poorly fitted or top-dose-only effect, or effect the other way; inactive = flat fitted curve, though single readings scatter.
# Target: ATP-dependent 6-phosphofructokinase (Trypanosoma brucei brucei) (UniProt O15648)
# Assay: qHTS Assay to Find Inhibitors of T. brucei phosphofructokinase; note: nearly all actives have a fitted effect of over 60% in size
# Conditions: T. brucei PFK, ADP-Glo luminescence
# Text: NIH Molecular Libraries Probe Production Network [MLPCN] NIH Chemical Genomics Center [NCGC] Grant: 1 R03 MH092153-01 PI Name: Malcolm Walkinshaw, University of Edinburgh NCGC Assay Overview: Various species of the protozoan family Trypanosomatidae are responsible for a range of serious human diseases in tropical and subtropical areas of the world. […] Many of the disorders caused by trypanosomatids are fatal if left untreated, but most currently used drugs are inefficient and toxic. […] A luminescence-based assay for T. brucei PFK activity has been developed which uses luciferase to detect production of ADP. […] To directly measure the ADP product of the PFK reaction, we used the ADP-Glo detection kit (Promega), which utilizes two separate reactions to 1) deplete all remaining uncatalyzed ATP and 2) convert all remaining ADP to ATP, which is then detected through a traditional luciferase-coupled reaction. […]
# NCGC Assay Protocol Summary: NCGC Assay Protocol Summary: Substrate buffer was dispensed into white, solid 1536-well plates at 3uL/well in 0.1M triethanolamine (TEA) buffer, pH 8.0, containing final concentrations of 5 mM MgCl2, 0.01% Tween20, 0.5 mM fructose-6-phosphate (F6P) and 0.1mM ATP. […] The plates were measured on a ViewLux plate reader for luminescent signal using a clear filter with a one second exposure. The %Activity was determined from the corrected luminescence values. […]
# Potency is the fitted concentration of half-maximal effect.
row,Compound,Potency
1,CN1CCN(CCOC(=O)C(O)(c2ccccc2)c2ccccc2)CC1,inconclusive: 37.9 µM
